Among the data in paper PMC7948961, “Proteomic identification and validation of novel interactions of the putative tumor suppressor PRELP with membrane proteins including IGFI-R and p75NTR” (The Journal of Biological Chemistry, 2021) are binding values, retold here.

These are yes or no findings as the source states them, for the method shown. In cells and extracts the contact can be indirect. Here binding means that the protein was enriched with, or labelled near, the bait; the list need not be complete. Tags and fused reporters may be left off the sequences shown.

The target of the assay is T1, Human PRELP (proline and arginine-rich end leucine-rich repeat protein) with a C-terminal FLAG tag, overexpressed in Expi293 cells (human) (UniProt P51888).
T1 sequence: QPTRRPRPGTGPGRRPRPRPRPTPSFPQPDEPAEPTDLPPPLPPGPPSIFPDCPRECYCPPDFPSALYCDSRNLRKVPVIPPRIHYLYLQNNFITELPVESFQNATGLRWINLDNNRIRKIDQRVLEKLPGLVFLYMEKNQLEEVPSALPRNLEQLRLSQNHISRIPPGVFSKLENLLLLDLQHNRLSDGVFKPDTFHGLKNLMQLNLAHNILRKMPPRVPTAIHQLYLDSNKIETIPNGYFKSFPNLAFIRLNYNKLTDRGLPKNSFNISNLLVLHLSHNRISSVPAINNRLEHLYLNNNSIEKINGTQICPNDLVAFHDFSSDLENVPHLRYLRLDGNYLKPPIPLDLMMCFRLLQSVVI
The experiment in a line: affinity purification with mass spectrometry; CoIP-MS: DDM extract (0.1% DDM, PBS pH 7.4) of the membrane fraction of Expi293 cells expressing PRELP-FLAG, captured on DDDDK-tagged Protein Purification Gel overnight at 4 °C, eluted with FLAG peptide; S-Trap digestion, LC-MS/MS; compared with control-transfected cells.

B1: Cadherin-related family member 1 (protein, UniProt Q96JP9 20-859)
chain: QANFAPHFFDNGVGSTNGNMALFSLPEDTPVGSHVYTLNGTDPEGDPISYHISFDPSTRSVFSVDPTFGNITLVEELDREREDEIEAIISISDGLNLVAEKVVILVTDANDEAPRFIQEPYVALVPEDIPAGSIIFKVHAVDRDTGSGGSVTYFLQNLHSPFAVDRHSGVLRLQAGATLDYERSRTHYITVVAKDGGGRLHGADVVFSATTTVTVNVEDVQDMAPVFVGTPYYGYVYEDTLPGSEVLKVVAMDGDRGKPNRILYSLVNGNDGAFEINETSGAISITQSPAQLQREVYELHVQVTEMSPAGSPAAQATVPVTIRIVDLNNHPPTFYGESGPQNRFELSMNEHPPQGEILRGLKITVNDSDQGANAKFNLQLVGPRGIFRVVPQTVLNEAQVTIIVENSAAIDFEKSKVLTFKLLAVEVNTPEKFSSTADVVIQLLDTNDNVPKFDSLYYVARIPENAPGGSSVVAVTAVDPDTGPWGEVKYSTYGTGADLFLIHPSTGLIYTQPWASLDAEATARYNFYVKAEDMEGKYSVAEVFITLLDVNDHPPQFGKSVQKKTMVLGTPVKIEAIDEDAEEPNNLVDYSITHAEPANVFDINSHTGEIWLKNSIRSLDALHNITPGRDCLWSLEVQAKDRGSPSFSTTALLKIDITDAETLSRSPMAAFLIQTKDNPMKAVGVLAGTMATVVAITVLISTATFWRNKKSNKVLPMRRVLRKRPSPAPRTIRIEWLKSKSTKAATKFMLKEKPPNENCNNNSPESSLLPRAPALPPPPSVAPSTGAAQWTVPTVSGSLTPQPTQPPPKPKTMGSPVQSTLISELKQKFEKKSVHNKAYF
In the case of B1, the binding entry is listed as “binds”.

B2: Carboxypeptidase D (protein, UniProt O75976 32-1380)
chain: AHIKKAEATTTTTSAGAEAAEGQFDRYYHEEELESALREAAAAGLPGLARLFSIGRSVEGRPLWVLRLTAGLGSLIPEGDAGPDAAGPDAAGPLLPGRPQVKLVGNMHGDETVSRQVLIYLARELAAGYRRGDPRLVRLLNTTDVYLLPSLNPDGFERAREGDCGFGDGGPSGASGRDNSRGRDLNRSFPDQFSTGEPPALDEVPEVRALIEWIRRNKFVLSGNLHGGSVVASYPFDDSPEHKATGIYSKTSDDEVFKYLAKAYASNHPIMKTGEPHCPGDEDETFKDGITNGAHWYDVEGGMQDYNYVWANCFEITLELSCCKYPPASQLRQEWENNRESLITLIEKVHIGVKGFVKDSITGSGLENATISVAGINHNITTGRFGDFYRLLVPGTYNLTVVLTGYMPLTVTNVVVKEGPATEVDFSLRPTVTSVIPDTTEAVSTASTVAIPNILSGTSSSYQPIQPKDFHHHHFPDMEIFLRRFANEYPNITRLYSLGKSVESRELYVMEISDNPGVHEPGEPEFKYIGNMHGNEVVGRELLLNLIEYLCKNFGTDPEVTDLVHNTRIHLMPSMNPDGYEKSQEGDSISVIGRNNSNNFDLNRNFPDQFVQITDPTQPETIAVMSWMKSYPFVLSANLHGGSLVVNYPFDDDEQGLATYSKSPDDAVFQQIALSYSKENSQMFQGRPCKNMYPNEYFPHGITNGASWYNVPGGMQDWNYLQTNCFEVTIELGCVKYPLEKELPNFWEQNRRSLIQFMKQVHQGVRGFVLDATDGRGILNATISVAEINHPVTTYKTGDYWRLLVPGTYKITASARGYNPVTKNVTVKSEGAIQVNFTLVRSSTDSNNESKKGKGASSSTNDASDPTTKEFETLIKDLSAENGLESLMLRSSSNLALALYRYHSYKDLSEFLRGLVMNYPHITNLTNLGQSTEYRHIWSLEISNKPNVSEPEEPKIRFVAGIHGNAPVGTELLLALAEFLCLNYKKNPAVTQLVDRTRIVIVPSLNPDGRERAQEKDCTSKIGQTNARGKDLDTDFTNNASQPETKAIIENLIQKQDFSLSVALDGGSMLVTYPYDKPVQTVENKETLKHLASLYANNHPSMHMGQPSCPNKSDENIPGGVMRGAEWHSHLGSMKDYSVTYGHCPEITVYTSCCYFPSAARLPSLWADNKRSLLSMLVEVHKGVHGFVKDKTGKPISKAVIVLNEGIKVQTKEGGYFHVLLAPGVHNIIAIADGYQQQHSQVFVHHDAASSVVIVFDTDNRIFGLPRELVVTVSGATMSALILTACIIWCICSIKSNRHKDGFHRLRQHHDEYEDEIRMMSTGSKKSLLSHEFQDETDTEEETLYSSKH
Regarding B2, the binding entry is reported as “binds”.
